The text below walks through data of PMC8494705.

The assay has as its target Sucrose phosphorylase from Leuconostoc mesenteroides ATCC 12,291 (LmSPase), wild type (Leuconostoc mesenteroides ATCC 12,291) (UniProt Q59495). In words: SEC; purified wild-type LmSPase on Superdex 200 10/300 GL; molecular weight calculated from the standard curve of marker proteins; apparent 63.4 kDa against theoretical 56.8 kDa; both purified.

No constants are given. Whether binding was seen depends on the method and setting.

B1: Sucrose phosphorylase from Leuconostoc mesenteroides ATCC 12,291 (LmSPase), wild type (enzyme, UniProt Q59495 1-490)
chain: MEIQNKAMLITYADSLGKNLKDVHQVLKEDIGDAIGGVHLLPFFPSTGDRGFAPADYTRVDAAFGDWADVEALGEEYYLMFDFMINHISRESVMYQDFKKNHDDSKYKDFFIRWEKFWAKAGENRPTQADVDLIYKRKDKAPTQEITFDDGTTENLWNTFGEEQIDIDVNSAIAKEFIKTTLEDMVKHGANLIRLDAFAYAVKKVDTNDFFVEPEIWDTLNEVREILTPLKAEILPEIHEHYSIPKKINDHGYFTYDFALPMTTLYTLYSGKTNQLAKWLKMSPMKQFTTLDTHDGIGVVDARDILTDDEIDYASEQLYKVGANVKKTYSSASYNNLDIYQINSTYYSALGNDDAAYLLSRVFQVFAPGIPQIYYVGLLAGENDIALLESTKEGRNINRHYYTREEVKSEVKRPVVANLLKLLSWRNESPAFDLAGSITVDTPTDTTIVVTRQDENGQNKAVLTADAANKTFEIVENGQTVMSSDNLTQN
With B1, the binding result is given as “no binding”.
